## Results from one PubChem assay

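293T-iDUX4 dual-reporter cells; luminescence of the tet-on Italica luciferase control is read after 24 h. The test concentration is not given here. Percent change in the Italica control signal; more negative values mean stronger inhibition, which points to nonspecific, tet-on or cytotoxic effects.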

Values are in %. Common to all entries: measured here: Italica tet-on control reporter. This is a side read-out of the assay, for part of the compounds, not drawn at random.

- O=C(C[C@@H]1CC[C@H]2[C@@H](COC[C@H](O)CN2Cc2ccc(Oc3ccccc3)cc2)O1)Nc1nccs1 : activity change -34.93%
- O=C(C[C@@H]1CC[C@H]2[C@@H](COC[C@@H](O)CN2C(=O)c2cc(Cl)cc(Cl)c2)O1)N1CCc2ccccc2C1 : activity change -1.065%
- CCS(=O)(=O)N1CCC2(CC1)CN(Cc1ccccc1OC)[C@@H](CO)c1c2c2ccc(OC)cc2n1C : activity change -10.76%
- Cc1ccc(OC(=O)N(C)C[C@H]2OCc3ccccc3-c3c(n(C)c4ccccc34)C(=O)N([C@H](C)CO)C[C@@H]2C)cc1 : activity change -22.14%
- COc1ccc2c3c([nH]c2c1)[C@@H](CO)N(CC1CC1)CC31CN(S(=O)(=O)c2cccc(F)c2)C1 : activity change -24.57%
- N#Cc1ccc(-c2ccc3c(c2)[C@@H]2[C@@H](CCN2C(=O)c2ccc4c(c2)OCO4)[C@H](CO)N3)cc1 : activity change -14.48%
- COc1ccccc1-c1ccc2c(c1)[C@H]1[C@H](CCN1C(=O)C1CCOCC1)[C@H](CO)N2 : activity change -36.26%
- CC(C)C#Cc1ccc([C@@H]2[C@@H](CO)N3CCCCN(C(=O)c4ccc(F)cc4)C[C@@H]23)cc1 : activity change 5.986%
- COc1ccccc1NC(=O)N1CC(=O)N2[C@H](CO)[C@@H](c3ccc(-c4ccc(F)cc4)cc3)[C@@H]2C1 : activity change -64.77%
- CCC(=O)N1CCCCN2[C@H](CO)[C@@H](c3ccc(/C=C/c4ccccc4)cc3)[C@H]2C1 : activity change -0.5321%
- O=C(C[C@H]1CC[C@H]2[C@@H](COC[C@@H](O)CN2Cc2cc(F)cc(F)c2)O1)NC1CCCC1 : activity change -10.44%
- O=C(c1ccc(F)cc1)N1C[C@@H]2N[C@H](C1)C2c1ccc(/C=C/c2ccccc2)cc1 (some centres not stated) : activity change -94.04%
- O=C(C[C@H]1CC[C@@H](NS(=O)(=O)c2ccc(F)cc2)[C@@H](CO)O1)N1CCN(c2ccccc2)CC1 : activity change 4.66%
- C[C@H](CO)N1C[C@H](C)[C@H](CN(C)S(=O)(=O)c2ccsc2)OCc2ccccc2-c2c(n(C)c3ccccc23)C1=O : activity change -4.237%
- COc1ccc2c3c(n(C)c2c1)[C@@H](CO)N(C(=O)c1ccc(F)cc1)CC31CCN(C(=O)Nc2ccc(F)cc2)CC1 : activity change -20.74%
- COc1ccc2c3c([nH]c2c1)[C@@H](CO)N(C(=O)CN(C)C)CC31CCN(Cc2ccccc2Cl)CC1 : activity change -75.73%
- COc1cccc(-c2ccc([C@H]3[C@H]4CN(C(=O)Cc5ccncc5)CCCCN4[C@H]3CO)cc2)c1 : activity change -8.226%
- CCN1[C@@H]2c3ccc(-c4ccccc4F)c(=O)n3C[C@H]1[C@H](CO)[C@H]2C(=O)N1CCCCC1 : activity change -0.8923%
- COc1ccc2c3c(n(C)c2c1)[C@H](CO)N(CC1CC1)CC31CCN(C(=O)c2ccc(F)cc2)CC1 : activity change -15.64%
- CCCNC(=O)N1CC2(CCN(Cc3ccc(F)cc3)CC2)c2c([nH]c3cc(OC)ccc23)[C@H]1CO : activity change -44.9%
- O=C(Nc1ccc2c(c1)[C@@H]1C[C@H](CC(=O)N3CCc4ccccc4C3)O[C@@H](CO)[C@@H]1O2)Nc1ccccc1F : activity change -27.18%
- COc1ccc2c3c(n(C)c2c1)[C@H](CO)N(CC1CCOCC1)CC31CN(C(=O)c2cccc(F)c2)C1 : activity change 0.1514%
- C/C=C/c1ccc([C@@H]2[C@H](CO)N(C(=O)C3CCCC3)C23CN(S(=O)(=O)CC)C3)cc1 : activity change -11.92%
- O=C(c1ccccn1)N1CC[C@@H]2[C@H](CO)Nc3ccc(-c4cccc(F)c4)cc3[C@@H]21 : activity change -12.7%
- COc1cccc(S(=O)(=O)Nc2ccc3c(c2)[C@H]2C[C@@H](CC(=O)NCCc4ccccc4)O[C@H](CO)[C@H]2O3)c1 : activity change -26.42%
- COc1ccc(NC(=O)N(C)C[C@H]2OCc3ccccc3-c3c(n(C)c4ccccc34)C(=O)N([C@@H](C)CO)C[C@H]2C)c(OC)c1 : activity change -7.482%
- COc1ccc2c3c([nH]c2c1)[C@@H](CO)N(CC1CC1)CC31CN(C(=O)c2ccccc2F)C1 : activity change -22.67%
- C[C@H]1CN([C@@H](C)CO)C(=O)c2ccccc2-c2ccccc2CO[C@H]1CN(C)Cc1ccc(C(F)(F)F)cc1 : activity change -48.92%
- Cc1noc(C)c1S(=O)(=O)Nc1ccc2c(c1)C(=O)N([C@H](C)CO)C[C@H](C)[C@@H](CN(C)C(=O)CCC(F)(F)F)OCCCC[C@H](C)O2 : activity change -31.89%

The first 3 entries again:

- O=C(C[C@@H]1CC[C@H]2[C@@H](COC[C@H](O)CN2Cc2ccc(Oc3ccccc3)cc2)O1)Nc1nccs1 : activity change -34.93%
- O=C(C[C@@H]1CC[C@H]2[C@@H](COC[C@@H](O)CN2C(=O)c2cc(Cl)cc(Cl)c2)O1)N1CCc2ccccc2C1 : activity change -1.065%
- CCS(=O)(=O)N1CCC2(CC1)CN(Cc1ccccc1OC)[C@@H](CO)c1c2c2ccc(OC)cc2n1C : activity change -10.76%

Data taken from PubChem BioAssay AID1224904, deposited by Broad Institute (2016).